The values that follow come from PMC9025633.

The chains behind the UniProt entries cited, without tags or fusion partners. Residues count along the entry.
UniProt O75581, residues 20-1613: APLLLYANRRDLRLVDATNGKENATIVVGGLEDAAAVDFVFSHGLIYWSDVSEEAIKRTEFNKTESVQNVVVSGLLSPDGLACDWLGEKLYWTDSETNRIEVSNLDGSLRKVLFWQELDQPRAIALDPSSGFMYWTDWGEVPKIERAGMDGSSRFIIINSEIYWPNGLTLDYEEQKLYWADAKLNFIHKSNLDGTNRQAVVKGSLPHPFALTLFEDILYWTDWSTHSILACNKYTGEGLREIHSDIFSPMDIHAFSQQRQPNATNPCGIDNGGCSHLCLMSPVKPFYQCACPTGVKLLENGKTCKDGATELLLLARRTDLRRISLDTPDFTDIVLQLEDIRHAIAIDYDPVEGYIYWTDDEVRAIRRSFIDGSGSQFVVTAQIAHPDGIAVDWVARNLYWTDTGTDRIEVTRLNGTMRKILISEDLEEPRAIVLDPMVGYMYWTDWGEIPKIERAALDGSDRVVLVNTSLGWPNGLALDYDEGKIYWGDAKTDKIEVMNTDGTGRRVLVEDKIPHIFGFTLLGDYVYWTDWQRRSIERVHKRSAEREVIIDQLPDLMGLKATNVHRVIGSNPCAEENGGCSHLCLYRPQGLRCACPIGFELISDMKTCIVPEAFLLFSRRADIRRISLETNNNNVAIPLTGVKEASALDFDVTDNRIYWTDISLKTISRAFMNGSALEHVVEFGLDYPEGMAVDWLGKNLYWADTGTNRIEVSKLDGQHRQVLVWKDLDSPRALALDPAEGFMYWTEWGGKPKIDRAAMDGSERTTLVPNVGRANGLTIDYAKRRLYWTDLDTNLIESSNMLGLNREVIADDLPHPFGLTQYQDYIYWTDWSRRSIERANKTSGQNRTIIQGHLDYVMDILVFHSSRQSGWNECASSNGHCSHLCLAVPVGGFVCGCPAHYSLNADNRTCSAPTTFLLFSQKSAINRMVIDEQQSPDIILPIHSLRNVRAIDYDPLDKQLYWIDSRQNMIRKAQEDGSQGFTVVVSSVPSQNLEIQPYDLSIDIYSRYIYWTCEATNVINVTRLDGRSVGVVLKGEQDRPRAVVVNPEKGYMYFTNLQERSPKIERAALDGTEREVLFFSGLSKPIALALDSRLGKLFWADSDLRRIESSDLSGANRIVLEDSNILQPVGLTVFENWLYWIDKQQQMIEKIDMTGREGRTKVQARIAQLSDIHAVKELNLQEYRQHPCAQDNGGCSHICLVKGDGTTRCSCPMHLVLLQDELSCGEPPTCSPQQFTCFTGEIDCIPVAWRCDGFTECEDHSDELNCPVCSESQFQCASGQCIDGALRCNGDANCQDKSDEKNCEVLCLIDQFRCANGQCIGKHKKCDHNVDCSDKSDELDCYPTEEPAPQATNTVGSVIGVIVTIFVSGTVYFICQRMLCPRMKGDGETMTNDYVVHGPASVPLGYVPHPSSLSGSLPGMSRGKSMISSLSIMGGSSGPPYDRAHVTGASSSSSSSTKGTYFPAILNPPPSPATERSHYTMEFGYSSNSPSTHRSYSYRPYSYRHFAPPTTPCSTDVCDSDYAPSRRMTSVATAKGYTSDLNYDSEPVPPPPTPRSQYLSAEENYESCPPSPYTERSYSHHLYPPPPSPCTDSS
UniProt P55085, residues 37-397: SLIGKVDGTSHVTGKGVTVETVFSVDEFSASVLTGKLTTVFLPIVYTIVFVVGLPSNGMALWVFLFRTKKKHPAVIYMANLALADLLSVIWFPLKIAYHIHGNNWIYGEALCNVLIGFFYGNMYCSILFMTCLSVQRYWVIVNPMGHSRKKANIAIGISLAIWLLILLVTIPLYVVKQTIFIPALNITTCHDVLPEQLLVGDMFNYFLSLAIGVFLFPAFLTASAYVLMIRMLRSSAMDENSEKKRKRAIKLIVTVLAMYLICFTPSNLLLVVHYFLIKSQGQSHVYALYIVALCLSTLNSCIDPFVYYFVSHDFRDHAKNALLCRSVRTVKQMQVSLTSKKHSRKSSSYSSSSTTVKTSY
UniProt P02749, residues 20-345: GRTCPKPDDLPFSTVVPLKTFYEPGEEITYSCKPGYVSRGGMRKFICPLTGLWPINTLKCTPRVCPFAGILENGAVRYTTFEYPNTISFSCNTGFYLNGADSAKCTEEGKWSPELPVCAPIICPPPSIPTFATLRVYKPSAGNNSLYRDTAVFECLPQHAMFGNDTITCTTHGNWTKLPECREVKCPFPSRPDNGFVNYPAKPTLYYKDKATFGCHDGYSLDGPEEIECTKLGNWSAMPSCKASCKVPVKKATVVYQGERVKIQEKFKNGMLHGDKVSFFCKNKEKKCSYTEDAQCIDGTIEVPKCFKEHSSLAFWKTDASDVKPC

Assay [1] concerns the target Low-density lipoprotein receptor-related protein 6 (LRP6) (human (endogenous in HUVEC)) (UniProt O75581). Kind of assay: co-IP; pooled Triton X-100-insoluble fractions (4-5-6) of HUVEC, untreated or treated with affinity-purified anti-β2-GPI antibodies for 45 min at 37 °C; immunoprecipitated with goat anti-LRP6 Abs and protein G-acrylic beads; western blot with anti-PAR-2 mAb or anti-β2-GPI Ab; irrelevant polyclonal IgG as negative control.

Assay [2] shares this target. Briefly: co-IP; pooled Triton X-100-insoluble fractions (4-5-6) of unstimulated (untreated) HUVEC; immunoprecipitated with goat anti-LRP6 Abs and protein G-acrylic beads; western blot with anti-β2-GPI Ab.

No constants are given. Whether binding was seen depends on the method and setting. Binding seen in cells or lysates may run through a third protein. Some results given as binding are weak or reduced against the parent protein; the word gives no strength.

As for “protease-activated receptor-2 (PAR-2) (from UniProt P55085 37-397)”, the binding entry in assay [1] is given as “binds”.
“β2-glycoprotein-I (β2-GPI) (from UniProt P02749 20-345)”: the values for the binding entry in assay [2] and in assay [1] were “binds weakly” and “binds”, respectively.
